Assay results reported in patent US9371365B2 (The Trustees of the University of Pennsylvania, priority 2009, dated 2016).
Some peptides are written in HELM: one residue between dots, names in brackets for other building blocks, links after the first $.

Experiment: general procedure: Fmoc solid-phase peptide synthesis; Low-loading Rink amide MBHA resin (0.34 mmol/g); DIC/HOAt
Conditions: conjugation step

PEPTIDE1{[ac].I.C.V.[Trp1Me].Q.D.W.[Sar].A.H.R.C.I.[miniPEG3].[miniPEG3].K.[am]}|PEPTIDE2{[TriazAc].R.L.I.E.D.I.C.L.P.R.W.G.C.L.W.E.D.D.[am]}$PEPTIDE1,PEPTIDE1,3:R3-13:R3|PEPTIDE2,PEPTIDE2,8:R3-14:R3|PEPTIDE1,PEPTIDE2,17:R3-1:R3$$$V2.0
conjugation yield: 50%
